This passage reports binding results from publication PMC10629824.

Protein sequences, listed by entry. Tags and fused reporters are not part of them. Lines headed by an entry give the natural chain unless they say otherwise; changes in a name come on top.
UniProt Q38DX5: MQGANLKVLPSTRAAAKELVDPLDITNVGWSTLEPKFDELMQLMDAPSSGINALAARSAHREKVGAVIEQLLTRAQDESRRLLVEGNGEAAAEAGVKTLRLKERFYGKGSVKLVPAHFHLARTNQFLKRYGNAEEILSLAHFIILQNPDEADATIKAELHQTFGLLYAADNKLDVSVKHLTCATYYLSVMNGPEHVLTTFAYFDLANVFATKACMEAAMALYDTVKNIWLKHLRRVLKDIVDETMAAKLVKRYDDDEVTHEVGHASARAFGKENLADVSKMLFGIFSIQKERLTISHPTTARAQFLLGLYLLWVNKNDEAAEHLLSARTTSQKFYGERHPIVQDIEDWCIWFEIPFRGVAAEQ
UniProt Q57ZB2: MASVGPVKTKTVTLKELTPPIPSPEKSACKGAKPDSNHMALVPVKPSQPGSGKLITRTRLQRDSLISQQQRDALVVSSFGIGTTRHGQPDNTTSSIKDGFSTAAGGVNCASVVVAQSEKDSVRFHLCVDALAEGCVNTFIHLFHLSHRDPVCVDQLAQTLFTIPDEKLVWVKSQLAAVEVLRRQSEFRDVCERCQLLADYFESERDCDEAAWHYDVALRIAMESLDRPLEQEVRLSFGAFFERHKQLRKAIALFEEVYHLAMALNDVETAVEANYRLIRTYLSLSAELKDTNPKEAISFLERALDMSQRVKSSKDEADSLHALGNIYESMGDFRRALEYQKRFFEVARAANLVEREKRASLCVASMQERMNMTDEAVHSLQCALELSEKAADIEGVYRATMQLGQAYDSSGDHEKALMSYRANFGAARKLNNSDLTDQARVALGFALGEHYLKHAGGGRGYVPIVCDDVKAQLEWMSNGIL

Results are given in words; binding and its absence hold for the method and conditions named. In cells and extracts the contact can be indirect. For part of these data: Binding calls can cover weak binding; strength is not graded here.

Holding throughout (test): co-IP; T. brucei cells expressing the tagged proteins lysed in IP buffer (25 mM Tris-HCl pH 7.4, 100 mM NaCl, 0.25% Nonidet P-40, 1 mM DTT, nuclease) with sonication; anti-Ty1 or mouse anti-HA, 1 hr at 4°C, Protein-G Dynabeads; western blot with anti-Ty1 and anti-HA
Experiment [1] concerns the target TbTAX-1HA (T. brucei ortholog of ZMYND12, Tb927.9.10370) (Trypanosoma brucei) (UniProt Q38DX5).
Experiment [2] concerns the target T1, Ty1TbPF16/SPAG6 (Tb927.1.2670) (Trypanosoma brucei) (UniProt Q4GYV5).
T1 sequence: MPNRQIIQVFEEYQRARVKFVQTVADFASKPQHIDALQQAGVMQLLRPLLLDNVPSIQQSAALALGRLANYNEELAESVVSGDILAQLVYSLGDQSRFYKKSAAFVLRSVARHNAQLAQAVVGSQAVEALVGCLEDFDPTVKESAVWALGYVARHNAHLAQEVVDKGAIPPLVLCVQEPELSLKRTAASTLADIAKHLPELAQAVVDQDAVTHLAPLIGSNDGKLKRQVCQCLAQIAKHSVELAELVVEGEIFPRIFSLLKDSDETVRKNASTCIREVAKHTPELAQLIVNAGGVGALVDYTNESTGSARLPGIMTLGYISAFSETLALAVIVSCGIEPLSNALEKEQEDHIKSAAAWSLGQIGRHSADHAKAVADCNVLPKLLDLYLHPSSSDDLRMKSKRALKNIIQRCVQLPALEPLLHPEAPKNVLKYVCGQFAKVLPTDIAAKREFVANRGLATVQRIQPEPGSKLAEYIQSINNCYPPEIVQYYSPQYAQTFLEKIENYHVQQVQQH

Experiment [3] has as its target TbTTC29Ty1 (Tb927.3.1990) (Trypanosoma brucei) (UniProt Q57ZB2).

With “TbTTC29Ty1 (Tb927.3.1990) (from UniProt Q57ZB2)”, in experiment [1], the binding result is “binds”.

As for “TbTAX-1HA (T. brucei ortholog of ZMYND12, Tb927.9.10370) (from UniProt Q38DX5)”, the binding result was “no binding” in experiment [2] and “binds” in experiment [3].
